Results on 32 molecules are retold here after US20220177596A1.

Test [1] has as its target human-CD40 monomer (human) (UniProt P25942). The test is described as follows: SPR 2 pt screen.
Test [2] has the same target. The test is described as follows: SPR.

Numbering of substitutions follows the chain as printed. These are yes or no findings as the source states them, for the method shown. Some binding calls cover weakened binding; strength is not graded here.

B1: humanized Y1238 hz27 (hz-HC6 / hz-LC2), IgG1.3f (antibody, V domains shown)
VH: QVQLVQSGAEVKKPGASVKVSCKASGYAFTNYLIEWVRQRPGQGLEWMGVINPGSGGTNYNEKFKGRVTLTADKSISTAYMELSRLRSDDTAVYYCARSQLGRRFDYWGQGTLVTVSS
VL: DIQMTQSPSSLSASVGDRVTITCKASQDVRTGVAWYQQKPGKAPKLLIYSASYRNTGVPSRFSGSRSGTDFTFTISSLQPEDIATYYCQQHYSPPYTFGGGTKVEIK
In the case of B1, the binding entry in test [1] is listed as “binds”.

B2: humanized Y1238 hz38 (hz-HC8 / hz-LC3), IgG1.3f (antibody, V domains shown)
VH: B1 VH with K12V, I76S, E82Q, Y95F
VL: B1 VL with K42Q, A43S, T85V
For B2, the binding result in test [1] is listed as “binds”.

B3: humanized Y1238 hz46 (hz-HC10 / hz-LC1), IgG1.3f (antibody, V domains shown)
VH: B1 VH with L70M, A72R
VL: B1 VL with R66G
For the molecule B3, the binding result in test [1] is given as “binds”.

B4: humanized Y1238 hz42 (hz-HC9 / hz-LC2), IgG1.3f (antibody, V domains shown)
VH: B1 VH with K12V, I76S, E82Q, Y95F, L113T
VL: B1 VL
For the molecule B4, the binding entry in test [1] is on record as “binds”.

B5: humanized Y1238 hz30 (hz-HC6 / hz-LC5), IgG1.3f (antibody, V domains shown)
VH: B1 VH
VL: B1 VL with K42Q, T85V
On to B5, for which the binding result in test [1] is reported as “binds”.

B6: humanized Y1238 hz55 (hz-HC11 / hz-LC5), IgG1.3f (antibody, V domains shown)
VH: B1 VH with L70M, A72R, I76S, Y95F
VL: B1 VL with K42Q, T85V
For the molecule B6, the binding entry in test [1] is given as “binds”.

B7: humanized Y1238 hz47 (hz-HC10 / hz-LC2), IgG1.3f (antibody, V domains shown)
VH: B1 VH with L70M, A72R
VL: B1 VL
Turning to B7, in test [1], the binding entry is given as “binds”.

B8: humanized Y1238 hz53 (hz-HC11 / hz-LC3), IgG1.3f (antibody, V domains shown)
VH: B1 VH with L70M, A72R, I76S, Y95F
VL: B1 VL with K42Q, A43S, T85V
Take B8: the binding result in test [1] is recorded as “binds”.

B9: humanized Y1238 hz45 (hz-HC9 / hz-LC5), IgG1.3f (antibody, V domains shown)
VH: B1 VH with K12V, I76S, E82Q, Y95F, L113T
VL: B1 VL with K42Q, T85V
In the case of B9, the binding result in test [1] is “binds”.

B10: humanized Y1238 hz51 (hz-HC11 / hz-LC1), IgG1.3f (antibody, V domains shown)
VH: B1 VH with L70M, A72R, I76S, Y95F
VL: B1 VL with R66G
As to B10, the binding entry in test [1] is reported as “binds”.

B11: humanized Y1238 hz43 (hz-HC9 / hz-LC3), IgG1.3f (antibody, V domains shown)
VH: B1 VH with K12V, I76S, E82Q, Y95F, L113T
VL: B1 VL with K42Q, A43S, T85V
In the case of B11, the binding result in test [1] is “binds”.

B12: humanized Y1238 hz29 (hz-HC6 / hz-LC4), IgG1.3f (antibody, V domains shown)
VH: B1 VH
VL: B1 VL with K42Q, A43S, P80A, T85V
Consider B12, for which, in test [1], the binding entry is on record as “binds”.

B13: humanized Y1238 hz49 (hz-HC10 / hz-LC4), IgG1.3f (antibody, V domains shown)
VH: B1 VH with L70M, A72R
VL: B1 VL with K42Q, A43S, P80A, T85V
As to B13, the binding entry in test [1] is “binds”.

B14: humanized Y1238 hz52 (hz-HC11 / hz-LC2), IgG1.3f (antibody, V domains shown)
VH: B1 VH with L70M, A72R, I76S, Y95F
VL: B1 VL
As for B14, the binding entry in test [1] is reported as “binds”.

B15: humanized Y1238 hz41 (hz-HC9 / hz-LC1), IgG1.3f (antibody, V domains shown)
VH: B1 VH with K12V, I76S, E82Q, Y95F, L113T
VL: B1 VL with R66G
Regarding B15, in test [1], the binding result is “binds”.

B16: humanized Y1238 hz48 (hz-HC10 / hz-LC3), IgG1.3f (antibody, V domains shown)
VH: B1 VH with L70M, A72R
VL: B1 VL with K42Q, A43S, T85V
Take B16: in test [1], the binding result is given as “binds”.

B17: humanized Y1238 hz40 (hz-HC8 / hz-LC5), IgG1.3f (antibody, V domains shown)
VH: B1 VH with K12V, I76S, E82Q, Y95F
VL: B1 VL with K42Q, T85V
Take B17: the binding entry in test [1] was “binds”.

B18: humanized Y1238 hz28 (hz-HC6 / hz-LC3), IgG1.3f (antibody, V domains shown)
VH: B1 VH
VL: B1 VL with K42Q, A43S, T85V
In the case of B18, in test [1], the binding entry was “binds”.

B19: humanized Y1238 hz37 (hz-HC8 / hz-LC2), IgG1.3f (antibody, V domains shown)
VH: B1 VH with K12V, I76S, E82Q, Y95F
VL: B1 VL
Take B19: in test [1], the binding result is given as “binds”.

B20: humanized Y1238 hz33 (hz-HC7 / hz-LC3), IgG1.3f (antibody, V domains shown)
VH: B1 VH with K12V, L70M, I76S, E82Q, Y95F
VL: B1 VL with K42Q, A43S, T85V
On to B20, for which the binding entry in test [1] is on record as “binds”.

B21: humanized Y1238 hz44 (hz-HC9 / hz-LC4), IgG1.3f (antibody, V domains shown)
VH: B1 VH with K12V, I76S, E82Q, Y95F, L113T
VL: B1 VL with K42Q, A43S, P80A, T85V
Take B21: the binding result in test [1] is “binds”.

B22: humanized Y1238 hz31 (hz-HC7 / hz-LC1), IgG1.3f (antibody, V domains shown)
VH: B1 VH with K12V, L70M, I76S, E82Q, Y95F
VL: B1 VL with R66G
On to B22, for which the binding entry in test [1] is reported as “binds”.

B23: humanized Y1238 hz54 (hz-HC11 / hz-LC4), IgG1.3f (antibody, V domains shown)
VH: B1 VH with L70M, A72R, I76S, Y95F
VL: B1 VL with K42Q, A43S, P80A, T85V
With B23, the binding entry in test [1] is “binds”.

B24: humanized Y1238 hz36 (hz-HC8 / hz-LC1), IgG1.3f (antibody, V domains shown)
VH: B1 VH with K12V, I76S, E82Q, Y95F
VL: B1 VL with R66G
As to B24, the binding entry in test [1] is on record as “binds”.

B25: humanized Y1238 hz35 (hz-HC7 / hz-LC5), IgG1.3f (antibody, V domains shown)
VH: B1 VH with K12V, L70M, I76S, E82Q, Y95F
VL: B1 VL with K42Q, T85V
On to B25, for which, in test [1], the binding entry is recorded as “binds”.

B26: humanized Y1238 hz32 (hz-HC7 / hz-LC2), IgG1.3f (antibody, V domains shown)
VH: B1 VH with K12V, L70M, I76S, E82Q, Y95F
VL: B1 VL
As for B26, the binding result in test [1] is listed as “binds”.

B27: humanized Y1238 hz34 (hz-HC7 / hz-LC4), IgG1.3f (antibody, V domains shown)
VH: B1 VH with K12V, L70M, I76S, E82Q, Y95F
VL: B1 VL with K42Q, A43S, P80A, T85V
As to B27, in test [1], the binding entry was “binds”.

B28: humanized Y1238 hz39 (hz-HC8 / hz-LC4), IgG1.3f (antibody, V domains shown)
VH: B1 VH with K12V, I76S, E82Q, Y95F
VL: B1 VL with K42Q, A43S, P80A, T85V
With B28, in test [1], the binding entry is reported as “binds”.

B29: humanized Y1238 hz50 (hz-HC10 / hz-LC5), IgG1.3f (antibody, V domains shown)
VH: B1 VH with L70M, A72R
VL: B1 VL with K42Q, T85V
As to B29, the binding result in test [1] is on record as “binds”.

B30: chimeric Y1238 supernatant (Sup 56; HC-Chim / LC-Chim) (antibody)
VH: QVQLQQSGAELVRPGTSVKVSCKASGYAFTNYLIEWVKQRPGQGLEWIGVINPGSGGTNYNEKFKGKATLTADKSSSTAYMQLSSLTSDDSAVYFCARSQLGRRFDYWGQGTTLTVSS
light: DIVMTQSHKFMSTSVGDRVSITCKASQDVRTGVAWYQQKPGQSPKLLIYSASYRNTGVPDRFTGSRSGTDFTFTISSVQAEDLAVYYCQQHYSPPYTFGGGTKLEIKRTVAAPSVFIFPPSDEQLKSGTASVVCLLNNFYPREAKVQWKVDNALQSGNSQESVTEQDSKDSTYSLSSTLTLSKADYEKHKVYACEVTHQGLSSPVTKSFNRGEC
In the case of B30, in test [1], the binding result was “binds”.

B31: purified Y1238-chimeric IgG1 antibody (antibody)
VH: B30 VH
light: B30 light
Regarding B31, the binding entry in test [1] is reported as “binds”.

B32: BI-mAb-B (antibody, human IgG1, kappa, L234A L235A, V domains shown)
VH: EVQLVESGGGLVKPGGSLRLSCAASGFTFSDYGMHWVRQAPGKGLEWVAYISSGNRIIYYADTVKGRFTISRDNAKNSLYLQMNSLRAEDTAVYYCARQDGYRYAMDYWGQGTLVTVSS
VL: DIVMTQSPDSLAVSLGEKVTINCKSSQSLLNSGNQKNYLTWHQQKPGQPPKLLIYWTSTRESGVPDRFSGSGSGTDFTLTISSLQAEDVAVYYCQNDYTYPLTFGGGTKVEIKR
As for B32, the binding entry in test [2] is reported as “binds”.
